Test results published in US5717058A, “Peptide inhibitors of tax-dependent transcription” (priority 1994, dated 1998).
Entries after “also recorded” stand apart in the source; their conditions may differ. Not every detail of the peptide structures is certain; ends, links or a residue may be inferred. No end group written: not given here.

By UniProt entry, the sequences of proteins in these tests, tags left out. Where a name states a change or a piece, a line headed by the entry shows the natural chain unless it says otherwise.
UniProt P16220: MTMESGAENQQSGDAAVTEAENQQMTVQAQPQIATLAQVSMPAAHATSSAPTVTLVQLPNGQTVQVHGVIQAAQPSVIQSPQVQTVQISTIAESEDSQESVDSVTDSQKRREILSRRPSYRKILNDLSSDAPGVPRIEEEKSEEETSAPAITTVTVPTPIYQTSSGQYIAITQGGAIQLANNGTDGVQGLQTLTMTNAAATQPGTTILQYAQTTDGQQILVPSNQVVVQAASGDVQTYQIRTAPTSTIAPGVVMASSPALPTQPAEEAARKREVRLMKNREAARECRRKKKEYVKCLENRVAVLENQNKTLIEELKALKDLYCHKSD

Biological target: T1, Tax-CREB interaction (Homo sapiens, UniProt P16220)
T1 construct: made in house
Experiment: EMSA, inhibition of Tax-mediated enhancement of CREB binding to HTLV-I 21 bp repeat DNA
Text: The HTLV-I transactivator Tax enhances the binding of CREB to the 21 bp repeat sequences contained in the HTLV-I LTR (Zhao and Giam (1992) PNAS 89:7070-7074; Franklin et al. 1993 J. Biol. Chem. 268:21225-21231; Wagner and Green, 1993 Science 262:395-399). We are testing whether peptides representing portions of the primary sequence of Tax can disrupt the Tax-CREB interaction as measured by EMSA.
Purified recombinant CREB was isolated as previously published (Franklin et al. 1993 J. Biol. Chem. 268:21225-21231) and active DNA-binding CREB was purified by heparin-agarose chromatography. […]
EMSA reactions contained 0.1-2.0 nM [^32 P]end-labeled double stranded site 3 probe, 5-50 ng poly (dI-dC) carrier DNA, 1-5 nM purified recombinant CREB, 100-200 nM purified recombinant TaxH6, 15 mM HEPES pH 8.0, 1.5% DMSO, 25 mM Tris-HCl pH 7.9, 6.25 mM MgCl2, 0.5 mM EDTA, 0.5 mM DTT, 60-120 mM KCl, and 10% (v/v) glycerol, and candidate peptide inhibitors in a 20 μl reaction volume. […] The complete reaction mixture was incubated 10-20 min. further at room temp. then analyzed on 5% non-denaturing polyacrylamide gels (49:1, acrylamide:N,N-methylene bisacrylamide). […] Relative amounts of protein-DNA complex were quantitated using Phosphor Image Analysis. […]

What does the source list for HSLHLLFEEY-NH2 [TX303-313, HSLHLLFEEY]?
effect on Tax-mediated enhancement of CREB binding to DNA (complex formation), in words (EMSA, CREB + Tax + peptide): inhibited Tax to varying extents; also recorded: potent inhibitors of Tax; fold enhancement (Table 5, peptide 25 μM, 2.3 nM CREB, 200 nM Tax, Tax without peptide 3.9): 1.5 fold
